Results from one PubChem assay

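Luminescence from an EWS-FLI1 target-promoter (NR0B1) reporter, set against a CMV-promoter reporter, two days after silencing single genes in TC32 Ewing sarcoma cells. Each siRNA was applied at 20 nM. A z-score of the log NR0B1-over-CMV signal, less the median of siRNAs with the same seed; more negative means a stronger specific loss of the NR0B1 reporter.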

This is part of the screen; most of the strongest results are not listed here. Sequences are the guide (antisense) strand, without overhang.

| # | strand | gene | seed-corrected z-score |
|---|---|---|---|
| 1 | `UACCGUAUCAUAGUCACUC` | DNAJC21 | -0.4267 |
| 2 | `AUAGAUACUGGGAGAGUGC` | KLRD1 | 0.8191 |
| 3 | `UUGUAAUUCCUGCAAAUGC` | BRCC3 | -0.1743 |
| 4 | `UAGAUGACCGUGUCCACCG` | NEURL1 | -0.2198 |
| 5 | `UCCAGAAUCCUAAUAGUCC` | ARL6IP6 | 1.2 |
| 6 | `ACAGCGAUAACAAAUAUCU` | CNBP | -1.029 |
| 7 | `UUGUGAACAGCUGCCGUCU` | C7orf34 | 0.5404 |
| 8 | `UUCUAUUCAGGUUGUCCCG` | LRRC18 | 0.1897 |
| 9 | `UGAAAUAUCACGAACAGUC` | DPY19L2 | 0.8206 |
| 10 | `UAUGUACGCGGCUCUAUUC` | CLCA4 | -0.7868 |
| 11 | `UGGACCAUAACCUUUAACC` | PROSC | 0.5344 |
| 12 | `UAGGCGGAGAGGUCAAUGG` | CEBPE | -0.824 |
| 13 | `UCGGCUAAAGGAGUUAUCC` | STXBP5 | -0.1155 |
| 14 | `UUUGUGGCUUUCGGUUUUC` | HIST2H2AC | -0.008465 |
| 15 | `UCUGGUAGUAGAGCAUCCC` | NCF2 | -0.2608 |
| 16 | `AUUCGUCUACUGUCUAUCG` | RB1CC1 | -0.5873 |
| 17 | `AAUAUGAACAGAAUCGUCU` | C18orf42 | 0.7372 |
| 18 | `ACAGUUGCAAAUGUUUGAG` | DNTTIP2 | -0.4036 |
| 19 | `UAUGGUCUUUUCUUAGCUG` | ZNF92 | -1.469 |
| 20 | `UUUCUGACCUUUAAGUUUG` | WHSC1 | -0.7665 |
| 21 | `UCUUUGAGCACAAAGACGA` | DNAJB5 | 0.9461 |
| 22 | `ACAGUGUUAACUGCAACCC` | MOB1B | 0.412 |
| 23 | `UAAUAUCUGAGUACAGAUG` | NPFFR2 | 0.0405 |
| 24 | `UCAGGUGUAAGCUCCAUGC` | DPM2 | 0.1062 |
| 25 | `UCCUAGUUUCCAGUUAUCC` | BIRC2 | 0.01424 |
| 26 | `UACUGUAAGGCAAUUCGGG` | L3HYPDH | 0.06793 |
| 27 | `AAGGGUUCCAUCCUAAGUC` | ZNF408 | 0.4244 |
| 28 | `UUUCUAUUAAACCUUGUUC` | PDCD5 | 0.3046 |
| 29 | `UGAGUUGACACCACCAGGU` | PTOV1 | -0.8348 |
| 30 | `UCCCUUUUCCGCUUGCUCU` | HAND1 | -1.433 |
| 31 | `AUCACACCCGGCUUGAUGC` | PAX2 | -0.4186 |
| 32 | `AAAGUGUAGACCUCAAGGU` | LOC100289470 | 0.7765 |
| 33 | `UCUCUUUCCAAAGUAGGUG` | CNP | 2.307 |
| 34 | `AACCUUAUUACAAUGAUCA` | YWHAEP7 | -0.2812 |
| 35 | `AAUACGCUCAUCUUGAUUG` | CORO1C | 0.9213 |
| 36 | `UUUCGUUGCAGCUUAGCGC` | LHX2 | -0.4387 |
| 37 | `UCUAAGUUCAAUUUAAGAC` | DSCR10 | -0.1899 |
| 38 | `UUUCGAAUCAAUCCAACAG` | CTNNB1 | 0.001465 |
| 39 | `AUCAUAACGAUCAGAGUCG` | PFKFB2 | -0.4141 |
| 40 | `UGAAAGACUCUGAAAAGUC` | NYX | 1.044 |
| 41 | `UUGGUAACUUGUAUGUUCC` | SLAMF6 | 0.4801 |
| 42 | `UUUCAUCCACUUGUCUUCG` | SH3RF1 | 1.439 |
| 43 | `ACAGUUGACAGUGCAGAGC` | HCG2040054 | 0.07298 |
| 44 | `UUCCCGACAUUAACCAAGG` | CKAP4 | 0.2544 |
| 45 | `UCGUUAAUUAUGUUACUUG` | ARMC3 | 0.09467 |
| 46 | `UCCCUGAACAAAACCUUCU` | PPM1M | 0.2237 |
| 47 | `AGCUCAAUAAAAGUCAUUC` | PCSK9 | -0.5378 |
| 48 | `UCCAGAAUCAUGUACACCG` | IMPG2 | 0.3757 |
| 49 | `UGCAAGCUAAUAUUCUUGC` | PELP1 | 0.4117 |
| 50 | `UAUUGUUUUCCCGCGAUGC` | PPP2R2A | 0.2609 |
| 51 | `UAAACGUAGACAUAAUCUC` | UHRF2 | 0.6498 |
| 52 | `UGACAUAGCAGACAUAAGG` | LIX1L | -0.2868 |
| 53 | `ACACUGGUCACAAACAUAG` | ZNF689 | 0.541 |
| 54 | `UGAACUACAGAUGAUGUUC` | HCRTR2 | -0.2321 |
| 55 | `UUUCGCAUCUCGUAGCUGU` | CAPN3 | -0.2492 |
| 56 | `AAAAUGAUACCCUAUUGUG` | C11orf49 | -0.877 |
| 57 | `AUUUCGAACCAUAAAUUCC` | MUT | 0.01452 |
| 58 | `AAAUCUUACAGAGAGGUGC` | FAM206A | -0.2983 |
| 59 | `UUAGCUCCGGAGAUGAUCG` | SRRM2 | 2.135 |
| 60 | `UUCGAAGUGAUAGACUACC` | TRIM37 | 0.6055 |
| 61 | `UUCUUGACCAGGCUGUACU` | S100A16 | -0.4236 |

For reference, 6 entries once more:

* AUUUCGAACCAUAAAUUCC against MUT | seed-corrected z-score 0.01452
* UCUAAGUUCAAUUUAAGAC against DSCR10 | seed-corrected z-score -0.1899
* AUUCGUCUACUGUCUAUCG against RB1CC1 | seed-corrected z-score -0.5873
* ACAGUGUUAACUGCAACCC against MOB1B | seed-corrected z-score 0.412
* AAAAUGAUACCCUAUUGUG against C11orf49 | seed-corrected z-score -0.877
* UUUCUGACCUUUAAGUUUG against WHSC1 | seed-corrected z-score -0.7665

The results are deposited in PubChem (AID1159506; NCATS, 2015).